For five molecules, binding results are on record in PMC9985628.

By UniProt entry, the sequences of proteins in these tests, tags left out. Where a name states a change or a piece, a line headed by the entry shows the natural chain unless it says otherwise.
UniProt Q62844: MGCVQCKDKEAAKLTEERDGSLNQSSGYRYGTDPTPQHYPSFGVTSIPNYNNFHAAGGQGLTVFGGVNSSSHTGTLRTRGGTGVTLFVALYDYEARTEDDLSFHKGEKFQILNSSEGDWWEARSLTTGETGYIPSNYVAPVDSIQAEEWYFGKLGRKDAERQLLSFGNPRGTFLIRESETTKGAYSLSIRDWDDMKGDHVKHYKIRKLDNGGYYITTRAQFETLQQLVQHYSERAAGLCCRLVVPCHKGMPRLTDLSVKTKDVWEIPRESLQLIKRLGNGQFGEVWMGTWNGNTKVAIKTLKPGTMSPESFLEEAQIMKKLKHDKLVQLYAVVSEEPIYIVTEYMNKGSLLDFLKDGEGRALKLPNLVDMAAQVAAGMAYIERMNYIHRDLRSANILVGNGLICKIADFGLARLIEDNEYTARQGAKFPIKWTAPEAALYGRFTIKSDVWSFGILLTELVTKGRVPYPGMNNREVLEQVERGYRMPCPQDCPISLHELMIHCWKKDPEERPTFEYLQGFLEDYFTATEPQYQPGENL
UniProt P39688: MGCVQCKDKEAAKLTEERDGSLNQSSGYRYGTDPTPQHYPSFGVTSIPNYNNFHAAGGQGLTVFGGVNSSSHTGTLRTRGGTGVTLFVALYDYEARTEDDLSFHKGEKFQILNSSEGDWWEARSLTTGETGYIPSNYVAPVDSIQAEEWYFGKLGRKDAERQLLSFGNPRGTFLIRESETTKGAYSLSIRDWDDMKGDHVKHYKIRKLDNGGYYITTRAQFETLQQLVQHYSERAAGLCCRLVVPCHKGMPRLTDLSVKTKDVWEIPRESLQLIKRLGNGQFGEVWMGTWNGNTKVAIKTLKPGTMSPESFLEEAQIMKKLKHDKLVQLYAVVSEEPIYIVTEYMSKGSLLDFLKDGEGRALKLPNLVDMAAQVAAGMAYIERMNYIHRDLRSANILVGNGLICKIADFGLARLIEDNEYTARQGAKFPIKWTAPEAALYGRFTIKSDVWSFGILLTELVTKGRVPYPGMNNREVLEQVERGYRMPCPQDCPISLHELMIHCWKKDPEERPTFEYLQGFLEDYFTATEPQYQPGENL

No constants are given. Whether binding was seen depends on the method and setting. Binding seen in cells or lysates may run through a third protein. Some entries that bind do so weakly or less than the wild type. For some assays here: Tags and fused reporters may be left off the sequences shown.

The target of test [1] is T1, NADPH oxidase 4 (rat (endogenous in NRCMs)) (UniProt Q924V1).
T1 sequence: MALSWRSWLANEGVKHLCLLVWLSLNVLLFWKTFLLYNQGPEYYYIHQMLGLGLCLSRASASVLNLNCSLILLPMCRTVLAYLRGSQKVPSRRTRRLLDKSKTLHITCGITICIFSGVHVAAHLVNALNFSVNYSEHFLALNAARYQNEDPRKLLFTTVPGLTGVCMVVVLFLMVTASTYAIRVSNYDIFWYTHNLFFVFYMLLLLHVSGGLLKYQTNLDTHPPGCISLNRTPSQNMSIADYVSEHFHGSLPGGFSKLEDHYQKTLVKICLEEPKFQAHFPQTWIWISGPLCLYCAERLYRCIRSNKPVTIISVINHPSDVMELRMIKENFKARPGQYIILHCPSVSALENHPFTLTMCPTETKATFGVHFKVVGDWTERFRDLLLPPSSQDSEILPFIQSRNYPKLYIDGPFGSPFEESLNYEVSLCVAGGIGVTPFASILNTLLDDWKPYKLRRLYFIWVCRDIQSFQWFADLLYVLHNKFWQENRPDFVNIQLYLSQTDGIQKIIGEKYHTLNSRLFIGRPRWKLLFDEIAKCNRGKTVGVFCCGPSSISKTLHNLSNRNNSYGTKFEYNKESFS
In words: co-IP; competition: NRCMs transduced with Ad-FYN(1-80), with FGF18 overexpression; lysates in IGEPAL CA-630 buffer, immunoblot. Background: In western blotting, separated proteins are transferred to a membrane and probed.

For test [2], the target named is T1, NADPH oxidase 4 (rat (endogenous in NRCMs)). In words: co-IP; NRCM lysates in IGEPAL CA-630 buffer (50 mM Tris-HCl pH 7.4, 1% IGEPAL CA-630, 10 mM EDTA, 150 mM NaCl, 50 mM NaF), primary antibody 2 h, Protein A/G magnetic beads, 4 °C, immunoblot; cells treated with FGF18 (50 ng/ml, 10 min), ISO, Ad-FGF18 or Ad-NOX4; IgG isotype as negative control.
The target of test [3] is T2, NADPH oxidase 4 (mouse heart) (mouse (endogenous in heart tissue)) (UniProt Q9JHI8).
T2 sequence: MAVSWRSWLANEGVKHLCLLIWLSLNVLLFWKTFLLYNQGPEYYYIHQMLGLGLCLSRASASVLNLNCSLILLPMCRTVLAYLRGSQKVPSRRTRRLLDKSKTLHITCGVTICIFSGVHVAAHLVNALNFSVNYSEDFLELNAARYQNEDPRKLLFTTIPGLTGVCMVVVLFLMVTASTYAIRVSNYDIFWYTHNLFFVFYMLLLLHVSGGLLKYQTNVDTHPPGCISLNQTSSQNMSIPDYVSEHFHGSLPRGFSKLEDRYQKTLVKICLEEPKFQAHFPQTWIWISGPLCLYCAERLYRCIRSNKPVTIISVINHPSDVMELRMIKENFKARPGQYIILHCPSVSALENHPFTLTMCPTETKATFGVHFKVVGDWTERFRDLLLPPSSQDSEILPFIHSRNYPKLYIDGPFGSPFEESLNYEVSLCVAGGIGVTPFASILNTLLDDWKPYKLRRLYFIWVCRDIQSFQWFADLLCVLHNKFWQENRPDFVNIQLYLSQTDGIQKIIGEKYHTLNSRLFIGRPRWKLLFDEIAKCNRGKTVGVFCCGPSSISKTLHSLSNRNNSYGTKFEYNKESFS
In words: co-IP; mouse heart tissue lysates in IGEPAL CA-630 buffer, Protein A/G magnetic beads, immunoblot; Sham or TAC, AAV9-cTnT-FGF18 or control.

The target of test [4] is T2, NADPH oxidase 4 (mouse heart) (mouse (endogenous in heart tissue)). In words: co-IP; competition: hearts of mice given AAV9-cTnT-FGF18 and AAV9-cTnT-FYN(1-80), Sham or TAC; tissue lysates in IGEPAL CA-630 buffer, immunoblot.
The target of test [5] is T1, NADPH oxidase 4 (rat (endogenous in NRCMs)). The test can be described thus: co-IP; NRCM lysates in IGEPAL CA-630 buffer (50 mM Tris-HCl pH 7.4, 1% IGEPAL CA-630, 10 mM EDTA, 150 mM NaCl, 50 mM NaF), primary antibody 2 h, Protein A/G magnetic beads, 4 °C, immunoblot; cells treated with FGF18 (50 ng/ml, 10 min), ISO, Ad-FGF18 or Ad-NOX4; IgG isotype as negative control. The source holds these as a separate data set.

In test [6] the target is T3, NOX4 overexpressed from adenovirus (Ad-NOX4) (rat) (UniProt Q924V1).
T3 sequence: T1 sequence
The test is described as above.

“Tyrosine-protein kinase FYN (from UniProt Q62844 1-537) (enzyme)”: the binding entry in test [1] and in test [2] was “binds” each time.

Take “Tyrosine-protein kinase FYN (mouse heart) (from UniProt P39688 1-537) (enzyme)”: the binding entry in test [3] and in test [4] was “binds” each time.

With “murine FYN_(1-80) (from UniProt P39688 1-80) (domain or fragment)”, the binding entry in test [4] is reported as “binds”.

Turning to “rat FYN_(1-80) (from UniProt Q62844 1-80) (domain or fragment)”, in test [1], the binding result is recorded as “binds”.

B1: p22^phox (protein, UniProt Q62737 1-192)
chain: MGQIEWAMWANEQALASGLILITGGIVATAGRFTQWYFGAYSIVAGVLICLLEYPRGKRKKGSTMERCGQKYLTAVVKLFGPLTRNYYVRAVLHLLLSVPAGFLLATILGTVCLAIASVIYLLAAIRGEQWTPIEPKPKERPQVGGTIKQPPTNPPPRPPAEVRKKPSEAEEEAASAGGPQVNPIPVTDEVV
B1: the binding result in test [5] and in test [6] was “binds” each time.
